Among the data in PMC11377309 are binding values, retold here.

These are yes or no findings as the source states them, for the method shown. A result given as binding can be weak or reduced; the word gives no strength.

For the assay, the target named is T1, Slc19A1 (mouse) (UniProt P41438).
T1 sequence: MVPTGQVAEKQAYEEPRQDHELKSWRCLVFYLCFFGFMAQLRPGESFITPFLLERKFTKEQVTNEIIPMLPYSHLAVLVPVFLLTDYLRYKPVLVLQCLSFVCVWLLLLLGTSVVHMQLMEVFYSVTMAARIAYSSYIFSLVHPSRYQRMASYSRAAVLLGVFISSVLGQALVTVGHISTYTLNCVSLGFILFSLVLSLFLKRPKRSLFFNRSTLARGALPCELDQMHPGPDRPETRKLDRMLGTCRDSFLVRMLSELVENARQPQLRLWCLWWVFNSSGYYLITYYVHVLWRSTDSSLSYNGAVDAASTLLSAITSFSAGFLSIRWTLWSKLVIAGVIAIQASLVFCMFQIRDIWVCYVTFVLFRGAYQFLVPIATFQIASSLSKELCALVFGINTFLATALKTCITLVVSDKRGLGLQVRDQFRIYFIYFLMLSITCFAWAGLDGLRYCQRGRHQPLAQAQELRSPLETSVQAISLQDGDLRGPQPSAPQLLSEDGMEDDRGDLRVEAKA
Briefly: Cell-Int (cell-cell conjugates counted by flow cytometry).

Regarding GLN Env, the binding result is listed as “binds”.
